Measured data: PubChem BioAssay AID1259424 (University of Nebraska Medical Center, 2018)

- Test: 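Seek colon cancer survival genes behaving like KSR1, using a six-gene signature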 (primary screen)
- System: human HCT116 colon cancer cells
- Knock-down reagent: siRNA pool against human genes, 50 nM
- Measurement: 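Log2 levels of six mRNAs (branched-DNA multiplex), adjusted by two reference genes and the non-targeting median, then scored against the average KSR1 knockdown pattern as Pearson r and euclidean distance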
- Scale: mean correlation with KSR1 profile: higher = expression change more like KSR1 knockdown
Shown is an unselected part of about 14,000 reagents tested. 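Higher correlation or smaller distance means closer resemblance to KSR1 loss; control wells, including KSR1 knockdowns, recur on many plates.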 The numbers tell different reagents against one gene apart. Not all columns of the deposit are shown. Not given: the time to read-out.

Against EPRS1 (GeneID 2058), the values are mean correlation with KSR1 profile 0.565.
Against MAGEB1 (GeneID 4112) the deposit lists mean correlation with KSR1 profile 0.111.
After knock-down of NTF4 (GeneID 4909), the record shows mean correlation with KSR1 profile -0.0268.
For SUCNR1 (GeneID 56670), the entry reads mean correlation with KSR1 profile -0.0394.
After knock-down of MRPL58 (GeneID 3396), the record shows mean correlation with KSR1 profile -0.527.
For NUP62CL (GeneID 54830), the entry reads mean correlation with KSR1 profile -0.242.
With knock-down of ESX1 (GeneID 80712) the results were mean correlation with KSR1 profile 0.23.
After knock-down of CNOT3 (GeneID 4849), the screen gave mean correlation with KSR1 profile 0.161.
After knock-down of CCDC70 (GeneID 83446), the record shows mean correlation with KSR1 profile 0.37.
With knock-down of KDM3B (GeneID 51780), the screen gave mean correlation with KSR1 profile -0.423.
Knock-down of SULT1A1 (GeneID 6817) gave: mean correlation with KSR1 profile -0.032.
After knock-down of ABCB6 (GeneID 10058), the record shows mean correlation with KSR1 profile -0.136.
RBMS1 (GeneID 5937) #1 gave mean correlation with KSR1 profile 0.0926.
RBMS1 (GeneID 5937) #2 showed mean correlation with KSR1 profile 0.659.
Against CDKN2A (GeneID 1029), the values are mean correlation with KSR1 profile 0.591.
Against WHR1 (GeneID 8859), the values are mean correlation with KSR1 profile 0.321.
For ADPRH (GeneID 141), the entry reads mean correlation with KSR1 profile -0.53.
For KIF1B (GeneID 23095) the deposit lists mean correlation with KSR1 profile -0.478.
With knock-down of TEAD2 (GeneID 8463), the screen gave mean correlation with KSR1 profile 0.155.
After knock-down of PRKCH (GeneID 5583), the record shows mean correlation with KSR1 profile 0.511.
For CNTFR (GeneID 1271), the entry reads mean correlation with KSR1 profile -0.0129.
Depletion of EXOSC5 (GeneID 56915) gave: mean correlation with KSR1 profile 0.466.
Against TCL1B (GeneID 9623), the entry reads mean correlation with KSR1 profile -0.329.
Knock-down of TRIM5 (GeneID 85363) resulted in: mean correlation with KSR1 profile 0.716.
ACO2 (GeneID 50) gave mean correlation with KSR1 profile -0.409.
PLPP5 (GeneID 84513) gave mean correlation with KSR1 profile -0.34.
WNT11 (GeneID 7481) gave mean correlation with KSR1 profile -0.171.
Depletion of CRYAB (GeneID 1410) gave: mean correlation with KSR1 profile -0.161.

Part of the list above in another layout:
ESX1 (GeneID 80712)
- mean correlation with KSR1 profile: 0.23

CNOT3 (GeneID 4849)
- mean correlation with KSR1 profile: 0.161

CCDC70 (GeneID 83446)
- mean correlation with KSR1 profile: 0.37

KDM3B (GeneID 51780)
- mean correlation with KSR1 profile: -0.423
